Experimental data from the supplement of paper PMC10849652.
This is one part of the list.

The chains behind the UniProt entries cited, without tags or fusion partners. Where a name states a change or a piece, a line headed by the entry shows the natural chain unless it says otherwise.
UniProt Q2PPJ7: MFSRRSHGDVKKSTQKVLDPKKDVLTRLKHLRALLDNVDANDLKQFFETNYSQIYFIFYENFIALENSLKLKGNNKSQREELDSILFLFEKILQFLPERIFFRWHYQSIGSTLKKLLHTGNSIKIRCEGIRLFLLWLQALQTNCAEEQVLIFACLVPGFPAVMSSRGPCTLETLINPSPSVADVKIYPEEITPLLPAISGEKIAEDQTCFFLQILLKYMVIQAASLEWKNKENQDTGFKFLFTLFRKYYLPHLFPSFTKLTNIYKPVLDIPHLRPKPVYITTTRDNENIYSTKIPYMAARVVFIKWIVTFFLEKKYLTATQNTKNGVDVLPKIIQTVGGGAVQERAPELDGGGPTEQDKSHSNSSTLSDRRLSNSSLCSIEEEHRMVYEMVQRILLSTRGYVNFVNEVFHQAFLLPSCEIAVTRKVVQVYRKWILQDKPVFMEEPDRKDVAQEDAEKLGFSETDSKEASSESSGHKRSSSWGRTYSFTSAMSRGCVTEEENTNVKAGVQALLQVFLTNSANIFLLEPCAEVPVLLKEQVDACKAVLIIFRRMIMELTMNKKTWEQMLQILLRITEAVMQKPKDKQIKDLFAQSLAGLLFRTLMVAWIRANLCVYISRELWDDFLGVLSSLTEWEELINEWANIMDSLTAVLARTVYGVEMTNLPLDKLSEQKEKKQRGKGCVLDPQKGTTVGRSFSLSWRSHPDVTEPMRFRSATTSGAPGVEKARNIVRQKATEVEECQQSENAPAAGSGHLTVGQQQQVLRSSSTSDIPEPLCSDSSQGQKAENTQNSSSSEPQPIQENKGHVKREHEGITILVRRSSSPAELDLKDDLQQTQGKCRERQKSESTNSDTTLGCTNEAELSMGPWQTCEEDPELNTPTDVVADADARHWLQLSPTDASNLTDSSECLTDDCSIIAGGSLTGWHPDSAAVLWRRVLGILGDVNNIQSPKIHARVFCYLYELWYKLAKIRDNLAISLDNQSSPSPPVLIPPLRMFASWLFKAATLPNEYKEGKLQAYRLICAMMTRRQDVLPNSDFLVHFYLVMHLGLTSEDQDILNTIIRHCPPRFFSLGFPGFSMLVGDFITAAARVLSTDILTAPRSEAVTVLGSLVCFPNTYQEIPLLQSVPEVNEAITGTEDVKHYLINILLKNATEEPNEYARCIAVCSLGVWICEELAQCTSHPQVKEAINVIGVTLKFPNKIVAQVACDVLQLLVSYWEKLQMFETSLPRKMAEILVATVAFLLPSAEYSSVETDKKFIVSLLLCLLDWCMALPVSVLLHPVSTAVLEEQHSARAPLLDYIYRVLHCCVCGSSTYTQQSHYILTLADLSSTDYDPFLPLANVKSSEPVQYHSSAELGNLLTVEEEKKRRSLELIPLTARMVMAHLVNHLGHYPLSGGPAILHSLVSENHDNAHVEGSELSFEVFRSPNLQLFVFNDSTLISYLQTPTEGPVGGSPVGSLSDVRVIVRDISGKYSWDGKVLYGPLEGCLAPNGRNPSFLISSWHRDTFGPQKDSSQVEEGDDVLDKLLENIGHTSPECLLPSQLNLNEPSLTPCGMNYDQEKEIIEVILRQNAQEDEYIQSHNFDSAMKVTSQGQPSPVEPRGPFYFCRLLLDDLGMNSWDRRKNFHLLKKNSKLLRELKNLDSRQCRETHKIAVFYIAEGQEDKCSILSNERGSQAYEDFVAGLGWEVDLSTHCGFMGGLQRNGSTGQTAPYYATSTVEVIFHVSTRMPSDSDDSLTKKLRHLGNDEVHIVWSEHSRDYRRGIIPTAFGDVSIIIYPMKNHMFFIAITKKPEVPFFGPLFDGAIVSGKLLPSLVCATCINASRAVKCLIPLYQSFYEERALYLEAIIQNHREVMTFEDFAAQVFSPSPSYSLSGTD
UniProt Q15771: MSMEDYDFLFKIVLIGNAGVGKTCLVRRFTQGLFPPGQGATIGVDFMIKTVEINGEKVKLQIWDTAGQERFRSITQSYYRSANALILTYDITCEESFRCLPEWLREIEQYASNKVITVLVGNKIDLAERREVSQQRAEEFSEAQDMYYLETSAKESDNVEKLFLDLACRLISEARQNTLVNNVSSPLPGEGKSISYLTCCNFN
UniProt O75943: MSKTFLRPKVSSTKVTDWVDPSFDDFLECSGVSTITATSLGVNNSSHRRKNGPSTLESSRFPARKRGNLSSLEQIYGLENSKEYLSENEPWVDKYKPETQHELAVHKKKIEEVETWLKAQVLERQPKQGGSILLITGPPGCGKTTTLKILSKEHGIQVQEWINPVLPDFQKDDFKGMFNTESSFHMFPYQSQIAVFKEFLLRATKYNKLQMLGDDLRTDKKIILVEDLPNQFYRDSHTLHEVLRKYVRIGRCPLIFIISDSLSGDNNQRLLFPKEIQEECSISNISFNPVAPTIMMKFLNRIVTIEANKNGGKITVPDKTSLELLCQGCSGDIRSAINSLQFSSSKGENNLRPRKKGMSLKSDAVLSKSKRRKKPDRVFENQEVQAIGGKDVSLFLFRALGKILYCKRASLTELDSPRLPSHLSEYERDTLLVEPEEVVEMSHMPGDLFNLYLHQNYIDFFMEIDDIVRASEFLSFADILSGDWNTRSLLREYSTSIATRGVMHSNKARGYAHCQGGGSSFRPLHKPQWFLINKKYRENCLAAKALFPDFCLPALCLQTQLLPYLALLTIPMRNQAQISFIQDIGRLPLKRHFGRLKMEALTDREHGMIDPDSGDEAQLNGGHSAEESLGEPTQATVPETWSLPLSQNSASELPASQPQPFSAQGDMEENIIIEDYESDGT
UniProt Q9Y620: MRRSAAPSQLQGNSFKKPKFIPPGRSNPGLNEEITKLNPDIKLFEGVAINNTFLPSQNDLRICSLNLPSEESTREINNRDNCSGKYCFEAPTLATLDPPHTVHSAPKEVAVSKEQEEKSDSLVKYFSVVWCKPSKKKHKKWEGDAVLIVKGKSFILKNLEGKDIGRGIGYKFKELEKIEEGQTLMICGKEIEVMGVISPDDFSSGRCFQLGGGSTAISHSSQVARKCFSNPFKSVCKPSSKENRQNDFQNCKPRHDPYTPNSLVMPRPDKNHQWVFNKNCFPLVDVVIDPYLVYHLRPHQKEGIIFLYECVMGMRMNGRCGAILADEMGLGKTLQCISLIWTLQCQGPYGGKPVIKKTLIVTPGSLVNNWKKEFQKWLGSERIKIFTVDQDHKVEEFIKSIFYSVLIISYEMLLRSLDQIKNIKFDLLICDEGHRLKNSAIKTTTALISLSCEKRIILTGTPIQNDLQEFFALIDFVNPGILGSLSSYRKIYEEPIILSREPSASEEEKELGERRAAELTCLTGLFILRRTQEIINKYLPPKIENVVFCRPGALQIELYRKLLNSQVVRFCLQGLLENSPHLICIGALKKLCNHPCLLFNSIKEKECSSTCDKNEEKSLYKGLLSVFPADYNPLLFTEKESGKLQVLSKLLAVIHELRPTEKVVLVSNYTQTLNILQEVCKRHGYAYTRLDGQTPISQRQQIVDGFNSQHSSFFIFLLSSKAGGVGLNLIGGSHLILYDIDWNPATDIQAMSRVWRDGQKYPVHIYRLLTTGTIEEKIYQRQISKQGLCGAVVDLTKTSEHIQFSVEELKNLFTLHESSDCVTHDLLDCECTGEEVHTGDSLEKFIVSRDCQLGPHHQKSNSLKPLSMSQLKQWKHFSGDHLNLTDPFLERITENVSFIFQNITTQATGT
UniProt Q9Y4B4: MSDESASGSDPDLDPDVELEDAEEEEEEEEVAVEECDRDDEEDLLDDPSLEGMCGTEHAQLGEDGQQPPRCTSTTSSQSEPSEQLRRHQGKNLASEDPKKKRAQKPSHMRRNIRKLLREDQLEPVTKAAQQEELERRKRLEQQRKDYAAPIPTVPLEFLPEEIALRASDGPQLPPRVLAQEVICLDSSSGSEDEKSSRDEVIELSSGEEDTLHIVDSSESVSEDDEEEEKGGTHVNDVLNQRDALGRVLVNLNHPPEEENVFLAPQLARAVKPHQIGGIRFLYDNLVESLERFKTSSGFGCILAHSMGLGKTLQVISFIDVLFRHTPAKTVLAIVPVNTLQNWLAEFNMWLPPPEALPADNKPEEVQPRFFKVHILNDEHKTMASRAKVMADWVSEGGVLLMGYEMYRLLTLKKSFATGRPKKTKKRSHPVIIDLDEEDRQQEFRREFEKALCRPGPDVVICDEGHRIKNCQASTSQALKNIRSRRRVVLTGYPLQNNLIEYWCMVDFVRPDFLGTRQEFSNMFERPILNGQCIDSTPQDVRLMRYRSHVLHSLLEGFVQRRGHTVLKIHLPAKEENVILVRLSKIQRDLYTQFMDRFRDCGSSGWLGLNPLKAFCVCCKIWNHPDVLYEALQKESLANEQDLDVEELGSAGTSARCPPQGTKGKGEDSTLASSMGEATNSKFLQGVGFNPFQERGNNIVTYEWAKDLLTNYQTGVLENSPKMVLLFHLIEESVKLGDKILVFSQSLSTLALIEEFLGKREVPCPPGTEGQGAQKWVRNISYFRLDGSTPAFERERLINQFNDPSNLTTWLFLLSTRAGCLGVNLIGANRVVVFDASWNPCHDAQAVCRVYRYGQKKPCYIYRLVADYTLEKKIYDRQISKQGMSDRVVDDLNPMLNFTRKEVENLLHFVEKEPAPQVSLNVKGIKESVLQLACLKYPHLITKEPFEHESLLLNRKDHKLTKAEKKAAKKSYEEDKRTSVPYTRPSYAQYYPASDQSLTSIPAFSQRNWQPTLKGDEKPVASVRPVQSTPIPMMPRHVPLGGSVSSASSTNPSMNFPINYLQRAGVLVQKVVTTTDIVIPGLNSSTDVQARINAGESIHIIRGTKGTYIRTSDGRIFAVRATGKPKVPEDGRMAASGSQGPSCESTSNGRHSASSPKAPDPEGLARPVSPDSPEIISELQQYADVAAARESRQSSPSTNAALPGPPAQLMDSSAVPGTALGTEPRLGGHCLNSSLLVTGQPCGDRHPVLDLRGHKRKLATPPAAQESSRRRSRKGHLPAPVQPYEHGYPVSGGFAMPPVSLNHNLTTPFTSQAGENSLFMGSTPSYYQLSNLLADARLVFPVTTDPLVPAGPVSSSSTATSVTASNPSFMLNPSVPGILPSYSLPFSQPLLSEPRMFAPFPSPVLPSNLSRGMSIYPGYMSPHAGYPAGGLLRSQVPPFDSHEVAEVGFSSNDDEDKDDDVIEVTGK
UniProt P52306: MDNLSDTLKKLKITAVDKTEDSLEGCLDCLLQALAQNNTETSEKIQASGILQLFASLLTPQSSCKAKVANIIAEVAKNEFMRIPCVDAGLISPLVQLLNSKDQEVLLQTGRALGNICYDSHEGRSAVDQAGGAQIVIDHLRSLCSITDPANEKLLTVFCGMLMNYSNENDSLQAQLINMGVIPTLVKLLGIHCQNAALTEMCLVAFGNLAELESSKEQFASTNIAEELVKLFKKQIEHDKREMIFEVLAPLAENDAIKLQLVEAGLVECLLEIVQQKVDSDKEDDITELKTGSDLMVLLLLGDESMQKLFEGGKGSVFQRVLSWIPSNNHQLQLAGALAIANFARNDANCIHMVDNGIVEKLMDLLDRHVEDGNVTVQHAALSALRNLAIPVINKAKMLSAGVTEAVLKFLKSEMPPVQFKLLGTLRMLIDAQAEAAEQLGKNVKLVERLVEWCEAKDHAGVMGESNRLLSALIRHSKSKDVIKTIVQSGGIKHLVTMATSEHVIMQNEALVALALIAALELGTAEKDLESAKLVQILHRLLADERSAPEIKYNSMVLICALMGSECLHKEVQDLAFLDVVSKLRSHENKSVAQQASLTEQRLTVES
UniProt Q9HD47: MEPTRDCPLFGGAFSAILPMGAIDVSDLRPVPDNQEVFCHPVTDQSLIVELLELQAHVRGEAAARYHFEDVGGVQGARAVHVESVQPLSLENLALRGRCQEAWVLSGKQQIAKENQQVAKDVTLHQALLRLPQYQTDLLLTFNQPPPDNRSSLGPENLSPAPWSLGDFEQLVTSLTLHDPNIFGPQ
UniProt Q96DA2: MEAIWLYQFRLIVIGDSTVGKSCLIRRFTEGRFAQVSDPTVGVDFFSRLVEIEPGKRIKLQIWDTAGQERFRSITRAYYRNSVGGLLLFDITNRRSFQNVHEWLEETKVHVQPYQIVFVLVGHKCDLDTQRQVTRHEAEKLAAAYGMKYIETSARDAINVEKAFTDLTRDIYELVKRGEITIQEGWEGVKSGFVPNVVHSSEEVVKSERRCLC
UniProt O00194: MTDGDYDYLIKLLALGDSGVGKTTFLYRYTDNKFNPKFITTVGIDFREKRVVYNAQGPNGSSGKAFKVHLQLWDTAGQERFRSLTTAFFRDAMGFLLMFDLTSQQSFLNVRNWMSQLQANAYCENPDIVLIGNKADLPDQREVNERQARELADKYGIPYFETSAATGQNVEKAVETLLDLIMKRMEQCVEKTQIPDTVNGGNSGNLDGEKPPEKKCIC
UniProt Q9NP72: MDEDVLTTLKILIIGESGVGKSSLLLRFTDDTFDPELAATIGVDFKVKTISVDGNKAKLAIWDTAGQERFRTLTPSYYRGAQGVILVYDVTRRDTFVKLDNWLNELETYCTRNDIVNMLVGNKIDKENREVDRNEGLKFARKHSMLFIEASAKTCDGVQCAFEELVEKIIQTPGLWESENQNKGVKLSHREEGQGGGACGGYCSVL

Columns and labels:
Assay in all cases: log2 fold change, soluble protein after heating vs DMSO (PISA); higher = thermal stabilisation; K562 lysate, 10 uM; active = over 0.2 and 3.5 SD of the protein, either way, in both replicates (recomputed)
[1] = compound: CN1CC[C@H](c2c(O)cc(O)c3c(=O)cc(-c4ccccc4Cl)oc23)[C@H](O)C1 [alvocidib]
Summary of the method: (§1)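 Soluble protein was defined as the supernatant remaining after 21,000xg for 90 min, following pooling of heated aliquots and adjustment to 0.5% NP-40 at 4°C. Before that, crude K562 extract at 1 mg/mL protein in PBS pH 7.4 with 1 mM MgCl2 was treated with 10 μM compound for 30 min and heated for 3 min across 48°C-58°C. Quantification used TMTpro 16plex LC-MS/MS with channel sums equalised, and values are log-two fold changes in thermal stability relative to solvent controls from duplicates.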

[2] = compound: COc1cc2nc(-c3cc(F)ccc3O)nc(N[C@@H]3CNC[C@H]3C(C)(C)O)c2cc1OC
Summary of the method: as §1

[3] = compound: CS(=O)(=O)CCNCc1ccc(-c2ccc3ncnc(Nc4ccc(OCc5cccc(F)c5)c(Cl)c4)c3c2)o1 [lapatinib]
Summary of the method: as §1

[4] = compound: C[C@@H](Oc1cc(-c2cnn(C3CCNCC3)c2)cnc1N)c1c(Cl)ccc(F)c1Cl [crizotinib]
Summary of the method: as §1

[5] = compound: C[C@H](C1=CC=C(C=C1)C(=O)NC2=C3C=CNC3=NC=C2)N
Summary of the method: as §1

[6] = compound: Cc1cc(Nc2cc(CN3CCOCC3)c3nc(C)c(Cc4ccc(Cl)cc4F)n3n2)n[nH]1 [gandotinib]
Summary of the method: as §1

[7] = compound: Cc1ccc(-n2nc(C(C)(C)C)cc2NC(=O)Nc2ccc(OCCN3CCOCC3)c3ccccc23)cc1 [doramapimod]
Summary of the method: as §1

[8] = compound: Cc1cccc(CC(=O)N2CCc3c2ccc(-c2cn(C)c4ncnc(N)c24)c3F)n1
Summary of the method: as §1

[9] = compound: CN1CCc2c(c3ccccc3n2Cc2ccc(C(=O)NO)cc2)C1 [Tubastatin A]
Summary of the method: as §1

[10] = compound: CNC(=O)C1=CC=CC=C1NC2=NC(=NC=C2Cl)NC3=C(C=C(C=C3)N4CCOCC4)OC
Summary of the method: as §1

[11] = compound: COC(=O)N[C@@H](C)CNc1nccc(-c2cn(C(C)C)nc2-c2cc(Cl)cc(NS(C)(=O)=O)c2F)n1 [encorafenib]
Summary of the method: as §1

[12] = compound: COC(=O)[C@H](CCSC)NC(=O)C1=C(C=C(C=C1)NC[C@H](CS)N)C2=CC=CC=C2
Summary of the method: as §1

[13] = compound: Cc1cc(Nc2cc(N3CCN(C)CC3)nc(Sc3ccc(NC(=O)C4CC4)cc3)n2)n[nH]1 [tozasertib]
Summary of the method: as §1

[14] = compound: CNC(=O)c1ccc(Nc2ncc(C(F)(F)F)c(NCc3nccnc3N(C)S(C)(=O)=O)n2)cc1 [defactinib]
Summary of the method: as §1

[15] = compound: CNc1nc(-c2ccc3c(N)n[nH]c3c2)cc(N2C[C@@H](C(=O)NC3CCCCC3)CC[C@H]2C)n1
Summary of the method: as §1

[16] = compound: CS(=O)(=O)N1CCN(Cc2cc3nc(-c4cccc5[nH]ncc45)nc(N4CCOCC4)c3s2)CC1 [pictilisib]
Summary of the method: as §1

[17] = compound: C[C@H](Nc1ncnc2nc[nH]c12)c1cc2cccc(Cl)c2c(=O)n1-c1ccccc1 [duvelisib]
Summary of the method: as §1

[18] = compound: Cc1ccc(NC(=O)c2ccc(CN3CC[C@H](N(C)C)C3)c(C(F)(F)F)c2)cc1Nc1nccc(-c2cncnc2)n1 [bafetinib]
Summary of the method: as §1

[19] = compound: COc1cc(Nc2ncc3c(n2)-c2ccc(Cl)cc2C(c2c(F)cccc2OC)=NC3)ccc1C(=O)O [alisertib]
Summary of the method: as §1

[20] = compound: COc1cc2ncnc(Nc3ccc(F)c(Cl)c3)c2cc1OCCCN1CCOCC1 [gefitinib]
Summary of the method: as §1

Measured: log2 fold change

RALGAPA2 (UniProt Q2PPJ7)
inactive: [1] -0.026 | [2] 0.103 | [3] -0.142 | [4] -0.105 | [5] -0.014 | [6] -0.101 | [7] -0.027 | [8] 0.03

R3HDM2 (UniProt B5MCU0)
inactive: [9] -0.176 | [10] -0.132 | [11] 0.068 | [12] -0.2 | [4] 0.014 | [13] 0.036 | [7] 0.037

RAB30 (UniProt Q15771)
inactive: [1] -0.009 | [10] 0.137 | [14] 0.072 | [15] -0.205 | [11] 0.068 | [12] -0.136 | [16] 0.003 | [4] 0.015 | [5] 0.003 | [17] 0.005 | [6] 0.015 | [13] 0.081 | [7] 0.022 | [18] -0.036 | [8] 0.124

QARS1, A0A0U1RR66
inactive: [2] -0.071 | [3] -0.213

RAC3 (UniProt P60763)
inactive: [1] 0.031 | [10] 0.021 | [14] -0.072 | [11] 0.058 | [12] -0.072 | [4] 0.031 | [5] 0.107 | [6] -0.138 | [13] 0.119 | [7] 0.002 | [8] 0.048

RAB3B (UniProt P20337)
inactive: [1] 0.112 | [4] 0.007 | [5] -0.048 | [6] 0.083 | [7] -0.024 | [8] -0.036

RAB11FIP3 isoform 3 (UniProt O75154)
inactive: [9] 0.09 | [10] 0.183 | [15] 0.059 | [11] 0.023 | [12] -0.251 | [2] 0.072 | [3] -0.112 | [17] -0.128 | [13] 0.14

RAD17 (UniProt O75943)
inactive: [1] -0.24 | [9] -0.041 | [14] 0.111 | [15] 0.154 | [11] 0.094 | [12] 0.026 | [19] 0.029 | [20] 0.022 | [16] -0.019 | [4] -0.01 | [5] 0.021 | [17] -0.027 | [6] -0.194 | [13] 0.005 | [7] -0.015 | [18] 0 | [8] -0.055

RAD54B (UniProt Q9Y620)
inactive: [9] 0 | [14] 0.291 | [15] -0.088 | [11] -0.211 | [12] 0.046 | [19] -0.169 | [20] 0.048 | [4] -0.16 | [17] -0.11 | [13] 0.012 | [7] 0.076

RAD54L2 (UniProt Q9Y4B4)
inactive: [1] 0.007 | [10] -0.065 | [14] -0.013 | [15] 0.093 | [11] 0.102 | [12] 0.153 | [19] 0.141 | [2] -0.088 | [20] 0.045 | [3] -0.209 | [16] -0.018 | [4] -0.037 | [5] -0.174 | [17] 0.026 | [6] -0.163 | [13] -0.166 | [7] -0.02 | [18] -0.095 | [8] 0.067

RACK1 (UniProt D6RHH4)
inactive: [1] 0.028 | [14] 0.041 | [16] 0.011 | [5] -0.307 | [6] -0.054 | [18] -0.17 | [8] 0.162

RAP1GDS1 isoform 4 (UniProt P52306)
inactive: [1] -0.074 | [2] 0.054 | [3] 0.029 | [16] 0.118 | [5] -0.304 | [6] 0.011 | [18] -0.133 | [8] -0.046

PYHIN1 (UniProt Q6K0P9)
inactive: [9] 0.053 | [15] 0.049 | [19] -0.267 | [2] 0.058 | [20] -0.244 | [3] -0.136 | [4] -0.054 | [17] 0.089 | [7] -0.142

RANGRF (UniProt Q9HD47)
inactive: [9] -0.217 | [10] 0.01 | [15] 0.051 | [2] -0.058 | [3] 0.035 | [4] -0.032 | [17] -0.237 | [7] -0.006

RABAC1 (UniProt Q9UI14)
inactive: [9] 0.053 | [10] -0.01 | [14] 0.06 | [15] 0.014 | [11] 0.108 | [12] 0.05 | [19] -0.007 | [2] -0.005 | [20] -0.086 | [3] 0.003 | [16] -0.083 | [4] -0.037 | [17] 0.068 | [13] 0.041 | [7] -0.1 | [18] -0.04

RAI1 (UniProt Q7Z5J4)
inactive: [11] -0.007 | [12] -0.164 | [4] -0.026 | [13] 0.233 | [7] 0.121

RAB39B (UniProt Q96DA2)
inactive: [1] -0.675 | [16] -0.063 | [5] -1.16 | [6] 0.467 | [18] -0.206 | [8] 0.566

RAB20 (UniProt Q9NX57)
inactive: [9] 0.133 | [10] -0.005 | [14] -0.035 | [15] 0.142 | [11] -0.052 | [12] 0.038 | [19] 0.05 | [2] -0.012 | [20] -0.039 | [3] -0.141 | [16] 0.038 | [4] 0.004 | [17] 0.018 | [13] 0.013 | [7] 0.053 | [18] -0.023

RAP1B (UniProt F5GZG1)
inactive: [1] -0.118 | [10] 0.01 | [14] -0.05 | [15] -0.104 | [11] 0.056 | [12] 0.124 | [19] 0.059 | [2] 0.002 | [20] 0.071 | [3] 0.003 | [16] 0.02 | [4] -0.022 | [5] -0.313 | [17] 0.016 | [6] 0.127 | [13] 0.103 | [7] -0.115 | [18] -0.098 | [8] 0.201

Reprinted at random: two entries already listed, in no set order.
R3HDM2 (UniProt B5MCU0)
inactive: [9] -0.176 | [10] -0.132 | [11] 0.068 | [12] -0.2 | [4] 0.014 | [13] 0.036 | [7] 0.037

RAD54L2 (UniProt Q9Y4B4)
inactive: [1] 0.007 | [10] -0.065 | [14] -0.013 | [15] 0.093 | [11] 0.102 | [12] 0.153 | [19] 0.141 | [2] -0.088 | [20] 0.045 | [3] -0.209 | [16] -0.018 | [4] -0.037 | [5] -0.174 | [17] 0.026 | [6] -0.163 | [13] -0.166 | [7] -0.02 | [18] -0.095 | [8] 0.067

Later entries

QSER1, A0A3B3IRW6
inactive: [9] -0.122 | [10] 0.014 | [14] 0.019 | [15] -0.035 | [11] 0.059 | [12] 0.183 | [19] 0.025 | [2] -0.004 | [20] -0.021 | [3] -0.04 | [4] -0.072 | [17] 0.005 | [13] -0.033 | [7] 0

RAB11FIP4 (UniProt Q86YS3)
inactive: [9] -0.018 | [10] 0.011 | [14] 0.021 | [15] -0.113 | [11] 0.195 | [12] 0.005 | [19] -0.191 | [2] 0.001 | [20] 0.129 | [3] 0.155 | [16] 0.009 | [17] -0.103 | [13] -0.03 | [18] 0.028

RAB11FIP5, A0A1B0GTL5
inactive: [1] -0.278 | [10] 0.212 | [2] 0.146 | [3] 0.022 | [4] -0.2 | [5] -0.088 | [6] -0.018 | [7] 0.171 | [8] 0.186

RACK1 (UniProt D6RF23)
inactive: [14] -0.214 | [11] -0.084 | [12] 0.045 | [19] 0.164 | [20] 0.167 | [16] 0.019 | [13] 0.191 | [18] -0.003

RAB3D (UniProt O95716)
inactive: [9] 0.053 | [10] -0.002 | [14] 0.096 | [15] 0.097 | [11] 0.109 | [12] -0.064 | [2] 0.02 | [3] 0.135 | [4] 0.029 | [17] -0.009 | [13] -0.021 | [7] 0.017

RAB27B (UniProt O00194)
inactive: [1] -0.178 | [10] -0.024 | [14] 0.043 | [15] -0.069 | [11] 0.018 | [12] -0.063 | [19] -0.007 | [2] 0.152 | [20] -0.091 | [3] -0.013 | [5] 0.243 | [17] 0.117 | [6] 0.122 | [13] -0.039 | [8] 0.06

RAB18 (UniProt Q9NP72)
inactive: [1] 0.115 | [10] 0.005 | [14] 0 | [15] 0.026 | [11] 0.016 | [12] -0.011 | [19] 0.12 | [2] -0.019 | [20] 0.06 | [3] -0.06 | [16] 0.008 | [4] 0.02 | [5] 0.098 | [17] -0.076 | [6] -0.045 | [13] 0.117 | [7] 0.021 | [18] -0.003 | [8] -0.056
